Measured values published in US9243051.
These are yes or no findings as the source states them, for the method shown. Some results given as binding are weak or reduced against the parent protein; the word gives no strength.

Key:
[1] = target: T1, Biotinylated MOG-35-55 peptide (Biot-…-OH) (murine sequence); assay: peptide capture ELISA, time course
T1 chain: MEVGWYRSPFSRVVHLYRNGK

[2] = target: T1, Biotinylated MOG-35-55 peptide …; assay: peptide capture ELISA, saturation binding; settings: remark: other sources report otherwise

B1: RTL302, Human HLA DR2 (DRB1*150101/DRA*0101) β1α1 domains (protein)
chain: MGDTRPRFLWQPKRECHFFNGTERVRFLDRYFYNQEESVRFDSDVGEFRAVTELGRPDAEYWNSQKDILEQARAAVDTYCRHNYGVVESFTVQRRVIKEEHVIIQAEFYLNPDQSGEFMFDFDGDEIFHVDMAKKETVWRLEEFGRFASFEAQGALANIAVDKANLEIMTKRSNYTPITN
modifications: here or on the partner: N-terminal biotin (Biot-); free C-terminus (-OH)
- binding [1]: binds
- binding [2]: binds
